Measurements from patent publication US20250326816A1 (KOREA UNIVERSITY RESEARCH AND BUSINESS FOUNDATION, published 2025).
These are yes or no findings as the source states them, for the method shown. Some entries that bind do so weakly or less than the wild type. Sequences can lack the tags named with a protein.

Tests used:
[1] = target: T1, Dimeric human ICOS (ICOS-Fc) (human, UniProt Q9Y6W8 21-140); assay: ELISA, ICOS-Fc coated at 4 ug/ml, ICOS-L variant titrated, anti-His-HRP
T1 construct: range 21-140; Fc at the C-terminus of ICOS to induce dimerization; Labeled with Alexa488 when used as probe in the flow cytometry on yeast; also called ICOS-Fc dimer protein; ICOS dimer protein; not shown: GS linker of glycine and serine; Fc region (domain) of human IgG antibody
T1 sequence (looked up): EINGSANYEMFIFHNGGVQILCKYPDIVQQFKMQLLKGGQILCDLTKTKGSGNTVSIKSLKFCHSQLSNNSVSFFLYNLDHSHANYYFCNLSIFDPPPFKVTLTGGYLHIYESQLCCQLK
Procedure: (§1) After washing four times, 50 μl of an anti-His-HRP conjugate was added and reacted at room temperature for 1 hour, and then washed four times. Thereafter, 50 μl of a 1-Step Ultra TMB-ELISA substrate solution (Thermo Fisher Scientific, 34028) was added to develop color, and then added with 50 μl each of 2 M H₂SO₄ to terminate the reaction, and then analyzed using an Epoch microplate spectrophotometer (BioTek).

[2] = target: T1, Dimeric human ICOS (ICOS-Fc); assay: bio-layer interferometry (Octet R8), ICOS-Fc captured on Protein A biosensor, 600 s association and 600 s dissociation
[3] = target: T1, Dimeric human ICOS (ICOS-Fc); assay: ELISA, ICOS-Fc coated at 4 ug/ml, ICOS-L variant titrated, anti-His-HRP (x axis printed as PD-L1 CO…ON (nM))
Procedure: as §1

Measured: binding

B1: A184 (ligand)
single chain: DTQEKEVRAMVGSDVELSCACPEGSRFDLNDVYVYWQTSESKTVVTYHIPQHSSLEYVDSRYRNRALMSPAGMLRGDFSLRLFNVTPQDEQKFHCLVLSPSLGFQEVLSVEVTLHVAANFSVPVVSAPHSPSQDELTFTCTSINGYPRPNVYWINKTDNSLLDQALQNDTVFLNMRGLYDVVSVLRIARTPSVNIGCCIENVLLQQNLTVGSQTGNDIGERDKITENPVSTGEKNAAT
notes: Soluble form without Fc; the Fc and atezolizumab fusions are m12, m15 and m18; also called control A184
binds: all assays above
